The source of these data is patent EP4538285A1.

These are yes or no findings as the source states them, for the method shown. Some binding calls cover weakened binding; strength is not graded here.

The target in this assay is hPD-L1-Fc (PD-L1 fused to an Fc derived from human IgG1) (human) (UniProt Q9NZQ7+P01857). Description: flow cytometry, variant on 293T cells, PD-L1-Fc.

B1: PD-1 variant SEQ ID NO: 7, expressed on cells (108-CD28 enhanced receptor) (receptor)
chain: PGWFLDSPDRPWNPPTFSPALLVVTEGDNATFTCSFSNTSESFVLNWYRMSPSNQTDKLAAFPEDRINRSQDCRFRVTQLPNGRDFHMSVVRARRNDSGTYLCGAISLSTPVWIKESLRAELRVTERRAEVPTAHPSPSPRPAGQFQTLVVGVVGGLLGSLVLLVWVLAVIRSKRSRLLHSDYMNMTPRRPGPTRKHYQPYAPPRDFAAYRS
In the case of B1, the binding result is given as “binds”.
